# Patent US7605005B2, “Method of screening for agents that modulate Tysnd1 level or activity in a cell” (Riken, priority 2005, dated 2009)
# At least one structure is not confirmed: it was looked up by name or label, or the drawing left a doubt.
# Assays:
# Tysnd1 = assay: Bezafibrate treatment: Tysnd1 protein content in liver subcellular fractions (Western blot); format: in vivo; conditions: mouse liver; diet containing 0.5% (v/w) bezafibrate for 3 weeks
# catalase = assay: Bezafibrate treatment: catalase content in liver subcellular fractions (Western blot); format: in vivo; conditions: mouse liver; diet containing 0.5% (v/w) bezafibrate for 3 weeks
# [1] = system: Acox1, Hsd17b4, and Acaa1 mRNA; assay: Bezafibrate treatment: liver mRNA of peroxisomal enzymes; format: in vivo; conditions: mouse liver; bezafibrate diet; data not shown
# [2] = system: liver B-oxidation of fatty acids; conditions: known, reference 77; cited from earlier work
smiles,measurement,setting,value
CC(C)(Oc1ccc(CCNC(=O)c2ccc(Cl)cc2)cc1)C(=O)O [bezafibrate],49 kDa form of Tysnd1 in the light mitochondrial fraction enriched in peroxisomes,Tysnd1,significant increase
same,Catalase content in the light mitochondrial fraction,catalase,no increase
same,Total quantity of catalase,catalase,slight increase
same,"Liver Acox1, Hsd17b4, and Acaa1 mRNA",[1],induction
same,Liver B-oxidation of fatty acids,[2],increase
